# Measured values as given in PubChem BioAssay (NCATS).
# This is one part of the list. These are further read-outs of the screen, such as a control signal, another cell line or another target. No call is given for them. Most of these compounds were active or inconclusive in the main read-out, so they are no random draw.
# Test: qHTS assay for small molecule agonists of retinoid X receptor alpha signaling (AID 588544)
# Details: HEK293T RXRa-UAS-bla, beta-lactamase reporter, 18 h; 530 nm emission
row,Structure (SMILES),max response
1,CCCCCCCC[Si](OCC)(OCC)OCC,-16.7%
2,Oc1ccc(C(c2ccc(O)cc2)C(Cl)(Cl)Cl)cc1,21.4%
3,c1ccc(OCCOc2ccccc2)cc1,3.64%
4,O=S(=O)(O)NC1CCCCC1,-17.6%
5,Nc1nc2ccccc2[nH]1,-37.7%
6,O=C(O)CCCc1c[nH]c2ccccc12,14.6%
7,COC(=O)c1cccc(C)c1S(=O)(=O)NC(=O)Nc1nc(OCC(F)(F)F)nc(N(C)C)n1,-13.4%
8,Nc1ccc(Cl)cc1Cl,-7.32%
9,CC1=CC(=O)NS(=O)(=O)O1,-5.71%
10,CCCCC(CC)COC(=O)c1ccc(N(C)C)cc1 (stereo unspecified),-9.82%
11,CCCCCCCCCCCCCCC,-19.1%
12,CC/C(=C(\c1ccccc1)c1ccc(OCCN(C)C)cc1)c1ccc(O)cc1,29.8%
13,Nc1ccc(Nc2ccccc2)cc1,2.65%
14,COc1ccc(C(=O)Nc2ccccc2)cc1[N+](=O)[O-],32.2%
15,CC(C)(C)C1CCC(O)CC1 (stereo unspecified),-13.8%
16,COc1cc(/C=C/c2ccccc2)oc(=O)c1,41.9%
17,CC(C)CCCCCCc1ccc(O)cc1,-45.7%
18,Nc1cc(Cl)nc(C(=O)O)c1Cl,-5.31%
19,COC(=O)C(C)Oc1ccc(Oc2ncc(C(F)(F)F)cc2Cl)cc1 (stereo unspecified),44.9%
20,COc1c2ccoc2cc2oc(=O)ccc12,9.36%
21,C1=C/CC/C=C/CC/C=C/CC/1,-24.3%
22,CCCOC(=O)NCCCN(C)C,-19.8%
23,Cc1ccc(N=Nc2c(O)ccc3ccccc23)c(C)c1,-6.98%
24,CCc1c(C(=O)O)c(=O)cnn1-c1ccc(Cl)cc1,4.97%
25,CCCCCCc1ccc(N)cc1,-3.68%
26,O=C(Nc1ccccc1)c1ccccc1O,-18.9%

# A second format for some results above:
row	Structure (SMILES)	max response
20	COc1c2ccoc2cc2oc(=O)ccc12	9.36%
21	C1=C/CC/C=C/CC/C=C/CC/1	-24.3%
